Laboratory results: ChEMBL document CHEMBL4303122, “Identification of potential treatments for COVID-19 through artificial intelligence-enabled phenomic analysis of human cells infected with SARS-CoV-2” (2020)
The full ranking holds about 1,600 compounds; the median of “Hit score” is about 0.13, and the highest 2% start at about 0.46. The list shows a part of the results.

tested on: SARS-CoV-2; experiment: Antiviral activity against SARS-CoV-2 (USA-WA1/2020 strain) measured by imaging in HRCE cells at MOI 0.4 after 96 hrs (reported as hit score from 0-1 for on-disease vs off-disease activity: scores >0.6 considered hits); type: functional, Homo sapiens

| SMILES | Hit score |
| --- | --- |
| CC1(C)S[C@@H]2[C@H](NC(=O)[C@H](N)c3ccc(O)cc3)C(=O)N2[C@H]1C(=O)[O-].[Na+] [AMOXICILLIN SODIUM] | 0.05468 |
| O=C1NCN(c2ccccc2)C12CCN(CCCC(c1ccc(F)cc1)c1ccc(F)cc1)CC2 | 0.1546 |
| CN1[C@@H]2CC[C@H]1C[C@@H](OC(=O)[C@H](CO)c1ccccc1)C2 [HYOSCYAMINE] | 0.0469 |
| CCCCC1=NC2(CCCC2)C(=O)N1Cc1ccc(-c2ccccc2-c2nnn[nH]2)cc1 [IRBESARTAN] | 0.2008 |
| NC(=O)Cc1cccc(C(=O)c2ccccc2)c1N | 0.01515 |
| CCOc1ccccc1OCC1CNCCO1 (stereo unspecified) [VILOXAZINE] | 0.08149 |
| CC[C@H]1OC(=O)[C@H](C)[C@@H](O[C@H]2C[C@@](C)(OC)[C@@H](O)[C@H](C)O2)[C@H](C)[C@@H](O[C@@H]2O[C@H](C)C[C@H](N(C)C)[C@H]2O)[C@](C)(OC)C[C@@H](C)C(=O)[C@H](C)[C@@H](O)[C@]1(C)O [CLARITHROMYCIN] | 0.1189 |
| N[C@@H]1CCCCN(c2c(F)cc3c(=O)c(C(=O)O)cn(C4CC4)c3c2Cl)C1 [BESIFLOXACIN] | 0.1261 |
| CCN(Cc1ccc(Cl)nc1)/C(=C/[N+](=O)[O-])NC | 0.05857 |
| O=C(Nc1cc(C(F)(F)F)ccc1O)Nc1cc(C(F)(F)F)ccc1O | 0.158 |
| CCCCOC(=O)c1ccc(N)cc1 [BUTAMBEN] | 0.2076 |
| CC(CCC(=O)O)[C@H]1CCC2C3C[C@H](O)[C@@H]4C[C@H](O)CC[C@]4(C)C3CC[C@@]21C (stereo partly specified) | 0.1858 |
| C[C@H]1O[C@H](O[C@H]2[C@H](O)[C@@H](O)[C@@H](O[C@H]3[C@H](O)[C@@H](O)C(O)O[C@@H]3CO)O[C@@H]2CO)[C@H](O)[C@@H](O)[C@@H]1N[C@H]1C=C(CO)[C@@H](O)[C@H](O)[C@H]1O (stereo partly specified) [ACARBOSE] | 0.1888 |
| Cl.OC[C@H]1NC[C@@H](O)[C@@H](O)[C@@H]1O | 0.1457 |
| C=C1CC[C@H](O)C/C1=C/C=C1\CCC[C@]2(C)[C@@H]([C@H](C)CCCC(C)(C)O)CC[C@@H]12 [CALCIFEDIOL ANHYDROUS] | 0.4579 |
| CCN(CC)CCOC(=O)C(c1ccccc1)C1CCCCC1 (stereo unspecified) [DROFENINE] | 0.258 |
| COc1cc2c(cc1OC)C(=O)C(CC1CCN(Cc3ccccc3)CC1)C2 (stereo unspecified) [DONEPEZIL] | 0.173 |
| CC(C)(C)c1ccc(CN2CCN(C(c3ccccc3)c3ccc(Cl)cc3)CC2)cc1 (stereo unspecified) [BUCLIZINE] | 0.3205 |
| C=CCOc1ccc(CC(=O)O)cc1Cl [ALCLOFENAC] | 0.04614 |
| COC(=O)C1=C(C)NC(C)=C(C(=O)O[C@H]2CCN(Cc3ccccc3)C2)[C@H]1c1cccc([N+](=O)[O-])c1 [BARNIDIPINE] | -0.001023 |
| CC(=O)c1ccc2c(c1)N(CCCN1CCC(CCO)CC1)c1ccccc1S2 [PIPERACETAZINE] | 0.01497 |
| CN1[C@@H]2CC[C@H]1C[C@@H](OC(c1ccccc1)c1ccccc1)C2 [BENZTROPINE] | 0.1527 |
| C[N+]1(C)CCCC(OC(=O)C(O)(c2ccccc2)c2ccccc2)C1 (stereo unspecified) [MEPENZOLATE] | 0.1869 |
| O=C(CCCN1CCC(O)(c2ccc(Br)cc2)CC1)c1ccc(F)cc1 [BROMPERIDOL] | 0.1419 |

| SMILES | Hit score |
| --- | --- |
| CNCC[C@H](Oc1cccc2ccccc12)c1cccs1 [DULOXETINE] | -0.001677 |
| Cc1c(C(N)=O)cc([N+](=O)[O-])cc1[N+](=O)[O-] [DINITOLMIDE] | 0.07869 |
| N=C(N)N [GUANIDINE] | 0.2278 |
| CCN(CC)CCOC(=O)C1(c2ccccc2)CCCC1 | 0.1023 |
| O=P(O)(O)C(Sc1ccc(Cl)cc1)P(=O)(O)O [TILUDRONIC ACID] | 0.04613 |
| NC(=O)OCCCc1ccccc1 [PHENPROBAMATE] | 0.1691 |
| COc1cc(/C=C2\CCC/C(=C\c3ccc(O)c(OC)c3)C2=O)ccc1O [CYCLOVALONE] | 0.231 |
| CN1[C@@H]2CC(O)C[C@H]1[C@@H]1O[C@@H]12 (stereo partly specified) | 0.127 |
| Cc1ncc([N+](=O)[O-])n1CC(O)CCl (stereo unspecified) [ORNIDAZOLE] | 0.1218 |
| N#Cc1ccc2[nH]cc(CCCCN3CCN(c4ccc5oc(C(N)=O)cc5c4)CC3)c2c1 [VILAZODONE] | 0.1122 |
| CN1C(C(=O)Nc2ccccn2)=C(O)c2sccc2S1(=O)=O [TENOXICAM] | 0.3342 |
| Cc1cccc(C)c1NC(=O)C1CCCCN1C (stereo unspecified) [MEPIVACAINE] | 0.09742 |
| FC(F)(F)c1ccc(CNc2ccc(Cc3c[nH]c4ncc(Cl)cc34)cn2)cn1 [PEXIDARTINIB] | 0.2913 |
| CC(=O)OCC(=O)[C@@]12OC3(CCCC3)O[C@@H]1C[C@H]1[C@@H]3CCC4=CC(=O)C=C[C@]4(C)[C@@]3(F)[C@@H](O)C[C@@]12C [AMCINONIDE] | -0.04507 |
| Cc1[nH]c(=O)c(C#N)cc1-c1ccncc1 [MILRINONE] | 0.05941 |
| Cc1ccnc2c1NC(=O)c1cccnc1N2C1CC1 [NEVIRAPINE] | 0.1032 |
| Cc1ccc(/C(=C\CN2CCCC2)c2cccc(/C=C/C(=O)O)n2)cc1 [ACRIVASTINE] | 0.1912 |
| CNC(=O)c1cccc(NC(=O)N2CCC(Oc3ccccc3Cl)CC2)c1 | 0.1005 |
| CC(C)(Oc1ccc(Cl)cc1)C(=O)O [CLOFIBRIC ACID] | 0.1996 |
| O=C(CCCN1CCC(n2c(=O)[nH]c3ccccc32)CC1)c1ccc(F)cc1 [BENPERIDOL] | 0.1627 |
| COc1ccc(CCNCC(O)COc2cccc(C)c2)cc1OC (stereo unspecified) [BEVANTOLOL] | 0.3675 |
| COc1cc(Nc2ncc(F)c(Nc3ccc4c(n3)NC(=O)C(C)(C)O4)n2)cc(OC)c1OC [R-406] | 0.1646 |
| CN(C)CC/C=C1\c2ccccc2CSc2ccccc21 [DOTHIEPIN] | 0.2581 |
| N[C@@H]1c2cccnc2[C@H](OC(=O)N2CCC(n3c(=O)[nH]c4ncccc43)CC2)CC[C@H]1c1cccc(F)c1F [RIMEGEPANT] | 0.2662 |

Retrieved by compound from the list above:

| SMILES | Hit score |
| --- | --- |
| O=C(Nc1cc(C(F)(F)F)ccc1O)Nc1cc(C(F)(F)F)ccc1O | 0.158 |
| Cc1c(C(N)=O)cc([N+](=O)[O-])cc1[N+](=O)[O-] [DINITOLMIDE] | 0.07869 |
| N=C(N)N [GUANIDINE] | 0.2278 |

Next part:

| SMILES | Hit score |
| --- | --- |
| CN1CC(=O)N2[C@H](c3ccc4c(c3)OCO4)c3[nH]c4ccccc4c3C[C@@H]2C1=O | 0.2898 |
| O=C(O)CCCN1C(=O)c2cccc3cccc(c23)C1=O | 0.1776 |
| O=C(O)C1CSCN1 (stereo unspecified) [TIMONACIC] | 0.2596 |
| CSc1ccc(C(=O)c2[nH]c(=O)[nH]c2C)cc1 [ENOXIMONE] | 0.08738 |
| O=C(CC1NCCCC1O)Cn1cnc2cc(Br)c(Cl)cc2c1=O (stereo unspecified) [HALOFUGINONE] | 0.1357 |
| Cn1c(=O)c2c(ncn2CC(=O)O)n(C)c1=O [ACEFYLLINE] | 0.1779 |
| CCCCCCCCCCC[C@@H](C[C@@H]1OC(=O)[C@H]1CCCCCC)OC(=O)[C@H](CC(C)C)NC=O [ORLISTAT] | 0.2509 |
| CC1(C)CCC(CN2CCN(c3ccc(C(=O)NS(=O)(=O)c4ccc(NCC5CCOCC5)c([N+](=O)[O-])c4)c(Oc4cnc5[nH]ccc5c4)c3)CC2)=C(c2ccc(Cl)cc2)C1 [VENETOCLAX] | 0.1129 |
| COc1ccc2c(c1)N(C[C@H](C)CN(C)C)c1ccccc1S2 [LEVOMEPROMAZINE] | -0.08389 |
| C[C@@H]1CN([C@H]2CC[C@](C#N)(c3ccc(F)cc3)CC2)CC[C@]1(C(=O)O)c1ccccc1 [LEVOCABASTINE] | 0.1177 |
| COc1ccccc1N1CCN(CC(O)COc2cccc3ccccc23)CC1 (stereo unspecified) [NAFTOPIDIL] | 0.2462 |
| CN1CCCC(CC2c3ccccc3Sc3ccccc32)C1 (stereo unspecified) [METHIXENE] | 0.08132 |
| CCN1C(=O)NC(c2ccccc2)C1=O (stereo unspecified) [ETHOTOIN] | 0.2667 |
| O=c1[nH]cnc2c([C@@H]3N[C@H](CO)[C@@H](O)[C@H]3O)c[nH]c12 [FORODESINE] | 0.3013 |
| CC(C)(C)C(=O)OCOP(=O)(COCCn1cnc2c(N)ncnc21)OCOC(=O)C(C)(C)C [ADEFOVIR DIPIVOXIL] | 0.1661 |
| CCOc1ccc(Cc2cc([C@@H]3O[C@H](SC)[C@@H](O)[C@H](O)[C@H]3O)ccc2Cl)cc1 [SOTAGLIFLOZIN] | 0.2293 |
| CO/N=C(\C(=O)N[C@@H]1C(=O)N2C(C(=O)O)=C(CSc3nnnn3C)CS[C@H]12)c1csc(N)n1 [CEFMENOXIME] | 0.1641 |
| COc1cc(OC)c(C(=O)CCCN2CCCC2)c(OC)c1 [BUFLOMEDIL] | 0.1285 |
| CCc1cc2c(s1)-n1c(C)nnc1CN=C2c1ccccc1Cl [ETIZOLAM] | 0.2234 |
| CCC(=O)c1ccc(O)cc1 [PAROXYPROPIONE] | 0.1593 |
| Cn1ccnc1S [METHIMAZOLE] | -0.01566 |
| CS(=O)(=O)CCNCc1ccc(-c2ccc3ncnc(Nc4ccc(OCc5cccc(F)c5)c(Cl)c4)c3c2)o1 [LAPATINIB] | 0.09821 |
| CC(C)=CCC[C@](C)(O)[C@H]1CC[C@]2(C)[C@@H]1[C@H](O)C[C@@H]1[C@@]3(C)CC[C@H](O[C@@H]4O[C@H](CO)[C@@H](O)[C@H](O)[C@H]4O[C@@H]4O[C@H](CO)[C@@H](O)[C@H](O)[C@H]4O)C(C)(C)[C@@H]3CC[C@]12C | 0.1968 |

Individual results from the list:
Entry for N#Cc1ccc2[nH]cc(CCCCN3CCN(c4ccc5oc(C(N)=O)cc5c4)CC3)c2c1 [VILAZODONE] under Hit score: 0.1122
Entry for C=CCOc1ccc(CC(=O)O)cc1Cl [ALCLOFENAC] under Hit score: 0.04614
Entry for CN1CCCC(CC2c3ccccc3Sc3ccccc32)C1 (stereo unspecified) [METHIXENE] under Hit score: 0.08132
